Some of the results follow. The main result of the screen is listed elsewhere. These columns were measured beside it and carry no call. Most of these compounds were active or inconclusive in the main read-out, so they are no random draw. The note in brackets gives the kind of curve behind each potency; many fits are weak.
Assay: IkB Signaling
Details: ABC-DLBCL IkBa-CBG/CBR dual luciferase ratio (green luciferase fused to IkBa over red control in OCI-Ly3 lymphoma cells), 4 h
Summary of the method: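 In this assay, an IκBα–CBG68 fusion accumulates when IKK-driven degradation is blocked; native CBR normalizes for cell number. OCI-Ly3 cells were treated 4 h with compound and doxycycline, then green and red light read after Chroma-Glo addition.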

[1] = measured here: control luc red channel unless noted

Question: For `COc1cc(OC)c(NC(=O)CCS(=O)(=O)c2ccc3c(c2)oc(=O)n3C)cc1Cl`, which AC50 [1] is on record?
Answer: Its AC50 is 39.8 µM [falling, single point].

Question: For `Cc1ccc(NC(=O)NC2=N/C(=C(/C#N)C(=O)N3CCCC3)c3ccccc32)cc1`, which AC50 [1] is on record?
Answer: The AC50 was 3.16 µM [falling, full curve].

Question: For `COc1ccccc1NC(=O)Cn1c(CN2CCCCC2)nc2ccccc2c1=O`, which AC50 [1] is on record?
Answer: Its AC50 is 25.1 µM [falling, partial curve].

Question: Which AC50 [1] does the source give for `CCOC(=O)CCCNC(=O)COC(=O)c1cccc(C)c1O` here?
Answer: The AC50 was 7.94 µM [falling, partial curve].

Question: Which AC50 [1] does the source give for `Nc1c(C(=O)c2ccccc2)oc2ccc(Br)cc12` here?
Answer: The AC50 was 2 µM [rising, partial curve] [measured here: IkB-luc green channel].

Question: For `COc1ccc(-c2nnc(NC(=O)c3ccc(S(=O)(=O)N4CCc5ccccc5C4)cc3)o2)cc1`, which AC50 [1] is on record?
Answer: The AC50 was 25.1 µM [falling, partial curve, poor fit].

Question: With `CCOc1ccc(CCNC(=O)c2cc(=O)[nH]c3ccc(S(=O)(=O)N4CCCCC4C)cc23)cc1OCC` (centres undefined) as the compound, how does the AC50 [1] read?
Answer: Its AC50 is 1 µM [rising, partial curve].

Question: For `COCCn1c(Cc2ccccc2)nnc1SCC(=O)NC(C)C`, which AC50 [1] is on record?
Answer: The AC50 was 10 µM [falling, partial curve].

Question: Which AC50 [1] does the source give for `Cc1ccc(-c2noc(CCC(=O)N(C)c3ccccc3F)n2)cc1` here?
Answer: The AC50 was 39.8 µM [falling, partial curve].

Question: For `Cc1ccc(CN(C(=O)COc2ccccc2Cl)c2ccccn2)o1`, which AC50 [1] is on record?
Answer: Its AC50 is 5.01 µM [rising, partial curve, poor fit].

Question: Which AC50 [1] does the source give for `Cc1csc(NC(=O)c2cccc(Cn3nc(C)c(Br)c3C)c2)n1` here?
Answer: Its AC50 is 10 µM [falling, partial curve].

Question: With `COc1ccc(Nc2c3c(nc4ccccc24)CCC3)cc1Cl` as the compound, how does the AC50 [1] read?
Answer: Its AC50 is 15.8 µM [falling, partial curve].

Question: With `Cc1cccc(NC(=O)Cn2c(=O)n(Cc3ccc4c(c3)OCO4)c(=O)c3oc4ccccc4c32)c1C` as the compound, how does the AC50 [1] read?
Answer: Its AC50 is 25.1 µM [falling, single point].

Question: Which AC50 [1] does the source give for `COc1ccc2[nH]c(=O)c(CN(CC3CCCO3)C(=O)Nc3ccccc3)cc2c1` (centres undefined) here?
Answer: The AC50 was 31.6 µM [falling, partial curve].

Question: For `COc1ccc(OC)c(CNC(=O)Nc2cn(CC(C)C)c(=O)c3ccccc23)c1`, which AC50 [1] is on record?
Answer: The AC50 was 31.6 µM [falling, single point].

Question: Which AC50 (measured here: IkB-luc green channel) does the source give for `CC1=C(/C=C/C(C)=C/C=C/C(C)=C\C=O)C(C)(C)CCC1` here?
Answer: The AC50 was 0.0501 µM [rising, full curve].

Question: And the AC50 (measured here: control luc red channel)?
Answer: Its AC50 is 15.8 µM [falling, full curve, poor fit].

Question: With `COCCSc1nc2c([nH]c3ccccc32)c(=O)n1-c1ccc(OC)c(OC)c1` as the compound, how does the AC50 [1] read?
Answer: The AC50 was 0.794 µM [rising, full curve].

Question: Which AC50 [1] does the source give for `CCCCn1c(CNC(=O)C23CC4CC(CC(C4)C2)C3)nnc1SCC(=O)Nc1ccc(C)cc1` here?
Answer: The AC50 was 25.1 µM [falling, partial curve].

Question: With `CCOCCCN(Cc1ccco1)S(=O)(=O)c1cc2c(cc1C)NC(=O)CO2` as the compound, how does the AC50 [1] read?
Answer: The AC50 was 0.1 µM [falling, partial curve].

Question: With `COc1ccc(-n2ncc(C(=O)Nc3cccc(C(F)(F)F)c3)c2C2CCN(C(=O)OC(C)(C)C)CC2)cc1` as the compound, how does the AC50 [1] read?
Answer: The AC50 was 31.6 µM [falling, single point].

Question: For `Cc1ccc(C2=Nc3ccccc3N(CC(=O)NCc3ccccc3Cl)C(=O)C2)cc1C`, which AC50 [1] is on record?
Answer: The AC50 was 20 µM [falling, single point].

Question: For `O=C(Nc1c(C(=O)N2CCN(c3ccccc3)CC2)oc2ccccc12)c1ccco1`, which AC50 [1] is on record?
Answer: The AC50 was 25.1 µM [falling, single point].

Question: For `CC(C)C(=O)NCC(c1ccc2c(c1)OCO2)N1CCN(c2ccccc2)CC1` (centres undefined), which AC50 [1] is on record?
Answer: Its AC50 is 1 µM [rising, full curve, poor fit].

Question: Which AC50 [1] does the source give for `CCn1c(C(=O)N2CCCC(C(=O)N3CCN(c4cc(C)ccc4C)CC3)C2)cc2sccc21` (centres undefined) here?
Answer: The AC50 was 25.1 µM [falling, partial curve].

Question: For `Cc1ccc(CCNC(=O)CCS(=O)(=O)c2cc3c(cc2C)NC(=O)CO3)cc1`, which AC50 [1] is on record?
Answer: Its AC50 is 7.94 µM [falling, full curve].

Question: For `COc1ccc(C)cc1NS(=O)(=O)c1cc2c3c(c1)CC(=O)N3CCC2`, which AC50 [1] is on record?
Answer: Its AC50 is 2.51 µM [rising, partial curve].

Question: Which AC50 [1] does the source give for `COc1ccc(-n2c(=O)c3ccccc3n(CC(=O)NCCc3ccc(OC)c(OC)c3)c2=O)cc1` here?
Answer: The AC50 was 0.158 µM [rising, full curve, poor fit].

Question: For `COc1cc2c(cc1OC)C(COc1cc(C)cc(C)c1)N(C(=O)COc1ccccc1)CC2` (centres undefined), which AC50 [1] is on record?
Answer: Its AC50 is 25.1 µM [falling, partial curve].

Question: With `Cc1ccc(NC(=O)C(=O)c2cc(C)n(-c3ccc(F)cc3)c2C)cc1C` as the compound, how does the AC50 [1] read?
Answer: Its AC50 is 10 µM [falling, partial curve].

Question: Which AC50 [1] does the source give for `CCOc1ccc(NC(=O)C2CCCN(S(=O)(=O)c3ccc4[nH]c(=O)ccc4c3)C2)cc1` (centres undefined) here?
Answer: Its AC50 is 0.2 µM [rising, full curve, poor fit].

Question: Which AC50 [1] does the source give for `COc1cccc(-n2ccn(CC(=O)c3ccc(F)cc3)c(=O)c2=O)c1` here?
Answer: Its AC50 is 10 µM [falling, partial curve].

Question: Which AC50 [1] does the source give for `COc1ccccc1N1CCN(C(=O)CSc2nc3ccccc3nc2Cc2ccccc2)CC1` here?
Answer: Its AC50 is 25.1 µM [falling, partial curve].

Question: For `Cc1ccc(CSC2=Nc3ccccc3C3=NC(CC(=O)NC4CCCCC4)C(=O)N23)cc1` (centres undefined), which AC50 [1] is on record?
Answer: Its AC50 is 0.398 µM [falling, full curve].

Question: With `COc1ccc(CNC(=O)c2cc(Nc3ccc(C)cc3C)nc3ccccc23)cc1` as the compound, how does the AC50 [1] read?
Answer: Its AC50 is 1 µM [falling, partial curve].

Question: Which AC50 [1] does the source give for `CCCN(CCC)S(=O)(=O)c1ccc2c(c1)N(CC(=O)NC(C)c1ccccc1)C(=O)CS2` (centres undefined) here?
Answer: Its AC50 is 25.1 µM [falling, partial curve].

Question: For `CCN(c1cccc(C)c1)S(=O)(=O)c1nnc(NC(=O)c2ccccc2Cl)s1`, which AC50 [1] is on record?
Answer: The AC50 was 7.94 µM [falling, partial curve].

Question: Which AC50 [1] does the source give for `COc1ccccc1N1CCN(C(=O)c2cc(-c3ccc(F)cc3)on2)CC1` here?
Answer: Its AC50 is 20 µM [falling, single point].

Question: For `CC(=O)c1ccc(N2C(=O)N(CC(=O)c3ccc(C)cc3)c3ccccc3S2(=O)=O)cc1`, which AC50 [1] is on record?
Answer: The AC50 was 20 µM [rising, partial curve].

Source: PubChem BioAssay AID445 (National Center for Advancing Translational Sciences (NCATS), 2006)
